Publication PMC10788534

Amino acid sequences for entries named in this document (tags omitted). Residues count along the entry.
UniProt Q01705, residues 1749-2293: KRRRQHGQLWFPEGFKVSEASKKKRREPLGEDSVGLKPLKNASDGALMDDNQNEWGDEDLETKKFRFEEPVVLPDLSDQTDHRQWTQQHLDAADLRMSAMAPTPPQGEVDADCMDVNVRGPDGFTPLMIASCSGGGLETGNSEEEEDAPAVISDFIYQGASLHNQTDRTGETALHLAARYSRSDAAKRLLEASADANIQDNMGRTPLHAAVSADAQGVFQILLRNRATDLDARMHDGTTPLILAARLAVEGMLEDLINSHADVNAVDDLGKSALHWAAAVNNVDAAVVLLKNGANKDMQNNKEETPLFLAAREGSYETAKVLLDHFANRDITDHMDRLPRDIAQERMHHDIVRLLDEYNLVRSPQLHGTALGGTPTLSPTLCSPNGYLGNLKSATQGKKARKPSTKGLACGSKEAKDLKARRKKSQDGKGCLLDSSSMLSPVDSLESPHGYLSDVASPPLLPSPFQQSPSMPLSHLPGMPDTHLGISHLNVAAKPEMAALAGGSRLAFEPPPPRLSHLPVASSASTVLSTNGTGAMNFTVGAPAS

Biological target: BioID2-NICD (HEK293 or NIH3T3 stable line; the text does not tell which) (mouse) (UniProt Q01705)
Assay: proximity labelling; BioID as in HEK293 and NIH3T3 stable lines; results told for the study as a whole (core-proximal proteins found in at least two of HEK293, 3T3 and BioGRID, and others) without naming the cell line

Row | Binder | binding
1 | TRPS1 (protein, UniProt Q9UHF7 1-1281) MVRKKNPPLRNVASEGEGQILEPIGTESKVSGKNKEFSADQMSENTDQSDAAELNHKEEHSLHVQDPSSSSKKDLKSAVLSEKAGFNYESPSKGGNFPSFPHDEVTDRNMLAFSSPAAGGVCEPLKSPQRAEADDPQDMACTPSGDSLETKEDQKMSPKATEETGQAQSGQANCQGLSPVSVASKNPQVPSDGGVRLNKSKTDLLVNDNPDPAPLSPELQDFKCNICGYGYYGNDPTDLIKHFRKYHLGLHNRTRQDAELDSKILALHNMVQFSHSKDFQKVNRSVFSGVLQDINSSRPVLLNGTYDVQVTSGGTFIGIGRKTPDCQGNTKYFRCKFCNFTYMGNSSTELEQHFLQTHPNKIKASLPSSEVAKPSEKNSNKSIPALQSSDSGDLGKWQDKITVKAGDDTPVGYSVPIKPLDSSRQNGTEATSYYWCKFCSFSCESSSSLKLLEHYGKQHGAVQSGGLNPELNDKLSRGSVINQNDLAKSSEGETMTKTDKSSSGAKKKDFSSKGAEDNMVTSYNCQFCDFRYSKSHGPDVIVVGPLLRHYQQLHNIHKCTIKHCPFCPRGLCSPEKHLGEITYPFACRKSNCSHCALLLLHLSPGAAGSSRVKHQCHQCSFTTPDVDVLLFHYESVHESQASDVKQEANHLQGSDGQQSVKESKEHSCTKCDFITQVEEEISRHYRRAHSCYKCRQCSFTAADTQSLLEHFNTVHCQEQDITTANGEEDGHAISTIKEEPKIDFRVYNLLTPDSKMGEPVSESVVKREKLEEKDGLKEKVWTESSSDDLRNVTWRGADILRGSPSYTQASLGLLTPVSGTQEQTKTLRDSPNVEAAHLARPIYGLAVETKGFLQGAPAGGEKSGALPQQYPASGENKSKDESQSLLRRRRGSGVFCANCLTTKTSLWRKNANGGYVCNACGLYQKLHSTPRPLNIIKQNNGEQIIRRRTRKRLNPEALQAEQLNKQQRGSNEEQVNGSPLERRSEDHLTESHQREIPLPSLSKYEAQGSLTKSHSAQQPVLVSQTLDIHKRMQPLHIQIKSPQESTGDPGNSSSVSEGKGSSERGSPIEKYMRPAKHPNYSPPGSPIEKYQYPLFGLPFVHNDFQSEADWLRFWSKYKLSVPGNPHYLSHVPGLPNPCQNYVPYPTFNLPPHFSAVGSDNDIPLDLAIKHSRPGPTANGASKEKTKAPPNVKNEGPLNVVKTEKVDRSTQDELSTKCVHCGIVFLDEVMYALHMSCHGDSGPFQCSICQHLCTDKYDFTTHIQRGLHRNNAQVEKNGKPKE | binds
2 | ZNF281 (protein, UniProt Q9Y2X9 1-895) MKIGSGFLSGGGGTGSSGGSGSGGGGSGGGGGGGSSGRRAEMEPTFPQGMVMFNHRLPPVTSFTRPAGSAAPPPQCVLSSSTSAAPAAEPPPPPAPDMTFKKEPAASAAAFPSQRTSWGFLQSLVSIKQEKPADPEEQQSHHHHHHHHYGGLFAGAEERSPGLGGGEGGSHGVIQDLSILHQHVQQQPAQHHRDVLLSSSSRTDDHHGTEEPKQDTNVKKAKRPKPESQGIKAKRKPSASSKPSLVGDGEGAILSPSQKPHICDHCSAAFRSSYHLRRHVLIHTGERPFQCSQCSMGFIQKYLLQRHEKIHSREKPFGCDQCSMKFIQKYHMERHKRTHSGEKPYKCDTCQQYFSRTDRLLKHRRTCGEVIVKGATSAEPGSSNHTNMGNLAVLSQGNTSSSRRKTKSKSIAIENKEQKTGKTNESQISNNINMQSYSVEMPTVSSSGGIIGTGIDELQKRVPKLIFKKGSRKNTDKNYLNFVSPLPDIVGQKSLSGKPSGSLGIVSNNSVETIGLLQSTSGKQGQISSNYDDAMQFSKKRRYLPTASSNSAFSINVGHMVSQQSVIQSAGVSVLDNEAPLSLIDSSALNAEIKSCHDKSGIPDEVLQSILDQYSNKSESQKEDPFNIAEPRVDLHTSGEHSELVQEENLSPGTQTPSNDKASMLQEYSKYLQQAFEKSTNASFTLGHGFQFVSLSSPLHNHTLFPEKQIYTTSPLECGFGQSVTSVLPSSLPKPPFGMLFGSQPGLYLSALDATHQQLTPSQELDDLIDSQKNLETSSAFQSSSQKLTSQKEQKNLESSTGFQIPSQELASQIDPQKDIEPRTTYQIENFAQAFGSQFKSGSRVPMTFITNSNGEVDHRVRTSVSDFSGYTNMMSDVSEPCSTRVKTPTSQSYR | binds

Other lines, results leading:

Row | binding | Binder
3 | binds | replication factor C (RFC)1 (protein, UniProt P35251 1-1148) MDIRKFFGVIPSGKKLVSETVKKNEKTKSDEETLKAKKGIKEIKVNSSRKEDDFKQKQPSKKKRIIYDSDSESEETLQVKNAKKPPEKLPVSSKPGKISRQDPVTYISETDEEDDFMCKKAASKSKENGRSTNSHLGTSNMKKNEENTKTKNKPLSPIKLTPTSVLDYFGTGSVQRSNKKMVASKRKELSQNTDESGLNDEAIAKQLQLDEDAELERQLHEDEEFARTLAMLDEEPKTKKARKDTEAGETFSSVQANLSKAEKHKYPHKVKTAQVSDERKSYSPRKQSKYESSKESQQHSKSSADKIGEVSSPKASSKLAIMKRKEESSYKEIEPVASKRKENAIKLKGETKTPKKTKSSPAKKESVSPEDSEKKRTNYQAYRSYLNREGPKALGSKEIPKGAENCLEGLIFVITGVLESIERDEAKSLIERYGGKVTGNVSKKTNYLVMGRDSGQSKSDKAAALGTKIIDEDGLLNLIRTMPGKKSKYEIAVETEMKKESKLERTPQKNVQGKRKISPSKKESESKKSRPTSKRDSLAKTIKKETDVFWKSLDFKEQVAEETSGDSKARNLADDSSENKVENLLWVDKYKPTSLKTIIGQQGDQSCANKLLRWLRNWQKSSSEDKKHAAKFGKFSGKDDGSSFKAALLSGPPGVGKTTTASLVCQELGYSYVELNASDTRSKSSLKAIVAESLNNTSIKGFYSNGAASSVSTKHALIMDEVDGMAGNEDRGGIQELIGLIKHTKIPIICMCNDRNHPKIRSLVHYCFDLRFQRPRVEQIKGAMMSIAFKEGLKIPPPAMNEIILGANQDIRQVLHNLSMWCARSKALTYDQAKADSHRAKKDIKMGPFDVARKVFAAGEETAHMSLVDKSDLFFHDYSIAPLFVQENYIHVKPVAAGGDMKKHLMLLSRAADSICDGDLVDSQIRSKQNWSLLPAQAIYASVLPGELMRGYMTQFPTFPSWLGKHSSTGKHDRIVQDLALHMSLRTYSSKRTVNMDYLSLLRDALVQPLTSQGVDGVQDVVALMDTYYLMKEDFENIMEISSWGGKPSPFSKLDPKVKAAFTRAYNKEAHLTPYSLQAIKASRHSTSPSLDSEYNEELNEDDSQSDEKDQDAIETDAMIKKKTKSSKPSKPEKDKEPRKGKGKSSKK
4 | binds | ZNF687 (protein, UniProt Q8N1G0 1-1237) MGDMKTPDFDDLLAAFDIPDIDANEAIHSGPEENEGPGGPGKPEPGVGSESEDTAAASAGDGPGVPAQASDHGLPPPDISVVSVIVKNTVCPEQSEALAGGSAGDGAQAAGVTKEGPVGPHRMQNGFGSPEPSLPGTPHSPAPPSGGTWKEKGMEGKTPLDLFAHFGPEPGDHSDPLPPSAPSPTREGALTPPPFPSSFELAQENGPGMQPPVSSPPLGALKQESCSPHHPQVLAQQGSGSSPKATDIPASASPPPVAGVPFFKQSPGHQSPLASPKVPVCQPLKEEDDDEGPVDKSSPGSPQSPSSGAEAADEDSNDSPASSSSRPLKVRIKTIKTSCGNITRTVTQVPSDPDPPAPLAEGAFLAEASLLKLSPATPTSEGPKVVSVQLGDGTRLKGTVLPVATIQNASTAMLMAASVARKAVVLPGGTATSPKMIAKNVLGLVPQALPKADGRAGLGTGGQKVNGASVVMVQPSKTATGPSTGGGTVISRTQSSLVEAFNKILNSKNLLPAYRPNLSPPAEAGLALPPTGYRCLECGDAFSLEKSLARHYDRRSMRIEVTCNHCARRLVFFNKCSLLLHAREHKDKGLVMQCSHLVMRPVALDQMVGQPDITPLLPVAVPPVSGPLALPALGKGEGAITSSAITTVAAEAPVLPLSTEPPAAPATSAYTCFRCLECKEQCRDKAGMAAHFQQLGPPAPGATSNVCPTCPMMLPNRCSFSAHQRMHKNRPPHVCPECGGNFLQANFQTHLREACLHVSRRVGYRCPSCSVVFGGVNSIKSHIQTSHCEVFHKCPICPMAFKSGPSAHAHLYSQHPSFQTQQAKLIYKCAMCDTVFTHKPLLSSHFDQHLLPQRVSVFKCPSCPLLFAQKRTMLEHLKNTHQSGRLEETAGKGAGGALLTPKTEPEELAVSQGGAAPATEESSSSSEEEEVPSSPEPPRPAKRPRRELGSKGLKGGGGGPGGWTCGLCHSWFPERDEYVAHMKKEHGKSVKKFPCRLCERSFCSAPSLRRHVRVNHEGIKRVYPCRYCTEGKRTFSSRLILEKHVQVRHGLQLGAQSPGRGTTLARGSSARAQGPGRKRRQSSDSCSEEPDSTTPPAKSPRGGPGSGGHGPLRYRSSSSTEQSLMMGLRVEDGAQQCLDCGLCFASPGSLSRHRFISHKKRRGVGKASALGLGDGEEEAPPSRSDPDGGDSPLPASGGPLTCKVCGKSCDSPLNLKTHFRTHGMAFIRARQGAVGDN

Results are given in words; binding and its absence hold for the method and conditions named. In cells and extracts the contact can be indirect. A yes stands for co-enrichment or nearness to the bait. Other partners may have been found.
